# Results deposited as PubChem BioAssay AID652243 (Drosophila RNAi Screening Center, 2013).
# Purpose: 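Fly regulators of androgen-dependent reporter output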 (primary screen)
# Cells: Drosophila S2R+ cells
# Knock-down reagent: long dsRNA against Drosophila genes
# Timing: 72 h (48 h, then 24 h hormone)
# Challenge: synthetic androgen R1881 at 10 nM for 24 h
# Measurement: 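Firefly light from an androgen-responsive reporter and Renilla control light per well, raw and unnormalised, for each of two replicates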
# Direction: firefly reporter light: higher = more light from androgen-responsive reporter; Renilla control light: higher = more constitutive control signal (cell number, transfection)
# Call rule: 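Hit when the log firefly-to-Renilla ratio dropped or increased by a fixed fold versus the mean of GFP or LacZ controls across duplicate plates; lowering cut given as 1.5 and as 3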
# Meaning of the calls: active = hit: reporter lowered or raised; inactive = no hit
# The deposit covers about 24,000 reagents; shown is a random part of those that have a named target and a result. Of all reagents, 246 (1%) got an active call. 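Plates not normalised; calls are printed but the firefly/Renilla ratio behind them is not deposited; fold cut for lowering reported inconsistently.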 Raw values are not corrected between plates. Names joined by + are all predicted targets of the reagent. Not stated in the record: the amount of reagent.
gene,DRSC id,"firefly reporter light, replicate 1","firefly reporter light, replicate 2","Renilla control light, replicate 1","Renilla control light, replicate 2",Call
lin-28,DRSC10261,1.98e5,1.81e5,2.20e6,1.76e6,inactive
Bap170 (Brahma associated protein 170kD),DRSC04964,6.67e5,6.36e5,1.23e6,1.48e6,inactive
Bap170 (Brahma associated protein 170kD),DRSC21826,5.34e5,5.58e5,2.36e6,3.52e6,inactive
Bap170 (Brahma associated protein 170kD),DRSC27559,4.29e5,4.26e5,6.54e5,6.67e5,inactive
CG14664,DRSC12250,73271,52031,2.03e6,1.69e6,inactive
CG33641,DRSC37845,6.67e5,8.79e5,1.89e6,1.97e6,inactive
snoRNA:Psi28S-2566 (ncRNA),DRSC37900,63910,1.31e5,3.08e5,3.03e5,inactive
Galt (Galactose-1-phosphate uridylyltransferase),DRSC03161,6.19e5,1.09e6,1.07e6,1.22e6,inactive
mip130 (Myb-interacting protein 130),DRSC18575,4.20e5,1.98e5,4.65e6,2.69e6,inactive
mip130 (Myb-interacting protein 130),DRSC26990,5.17e5,5.21e5,5.84e5,3.66e5,inactive
Sos (Son of sevenless),DRSC03439,2.76e5,2.02e5,1.16e6,1.28e6,inactive
Sos (Son of sevenless),DRSC23624,2.07e5,1.81e5,4.77e5,3.04e5,inactive
Sos (Son of sevenless),DRSC39141,5.84e5,5.81e5,1.40e6,1.28e6,inactive
pch2 (pachytene checkpoint 2),DRSC14368,67767,55788,1.89e6,1.28e6,inactive
Hsp67Bc (Heat shock gene 67Bc),DRSC11193,1.86e5,1.14e5,2.27e6,1.05e6,inactive
Hsp67Bc (Heat shock gene 67Bc),DRSC28175,5.27e5,4.60e5,1.80e6,1.76e6,inactive
Grl43a (Gustatory receptor-like 43a),DRSC06383,2.41e5,1.75e5,1.40e6,9.02e5,inactive
CG31683 + CG18858,DRSC02703,1.67e5,2.13e5,2.26e6,2.38e6,inactive
CG12010,DRSC08218,95100,69888,6.50e5,9.72e5,inactive
Cyp309a1 (Cytochrome P450 309a1),DRSC00747,1.12e5,1.11e5,8.58e5,8.08e5,inactive
Vps25 (Vacuolar protein sorting 25),DRSC06486,3.44e5,2.28e5,1.14e6,1.72e6,inactive
fh (frataxin),DRSC18430,2.85e5,2.85e5,2.81e6,2.59e6,inactive
CG34289,DRSC38814,1.01e6,8.41e5,2.11e6,1.71e6,inactive
Tctp (Translationally controlled tumor protein),DRSC15649,1.86e5,1.94e5,2.60e6,3.02e6,inactive
Tctp (Translationally controlled tumor protein),DRSC29100,5.02e5,4.03e5,1.10e6,1.08e6,inactive
Had1 (beta Hydroxy acid dehydrogenase 1),DRSC20216,5.35e5,5.07e5,3.17e6,2.23e6,inactive
CG12209,DRSC06119,3.09e5,2.82e5,1.80e6,1.61e6,inactive
Upf2,DRSC18218,3.04e5,2.76e5,2.58e6,2.01e6,inactive
Upf2,DRSC27785,2.35e5,2.09e5,3.83e5,7.14e5,inactive
msl-3 (male-specific lethal 3),DRSC11371,1.88e5,1.20e5,2.50e6,1.63e6,inactive
CG17010,DRSC02559,1.05e6,1.16e6,2.71e6,2.98e6,inactive
CG17010,DRSC29558,8.10e5,4.77e5,1.20e6,1.20e6,inactive
CG17010,DRSC39292,,,,,inactive
shtd (shattered),DRSC20166,81643,96186,6.40e5,7.46e5,inactive
shtd (shattered),DRSC27760,2.80e5,3.06e5,5.69e5,7.67e5,inactive
CG16995,DRSC00480,1.22e5,1.13e5,6.63e5,6.73e5,inactive
CG33986,DRSC37802,1.17e5,1.22e5,7.31e5,5.64e5,inactive
CG15564,DRSC15102,2.26e5,2.50e5,2.18e6,2.92e6,inactive
CG13130 (retired record) + bib,DRSC24888,5.39e5,7.45e5,6.09e5,7.29e5,inactive

Next part (8 carried over from the part before).
gene,DRSC id,"firefly reporter light, replicate 1","firefly reporter light, replicate 2","Renilla control light, replicate 1","Renilla control light, replicate 2",Call
CG17010,DRSC29558,8.10e5,4.77e5,1.20e6,1.20e6,inactive
CG17010,DRSC39292,,,,,inactive
shtd (shattered),DRSC20166,81643,96186,6.40e5,7.46e5,inactive
shtd (shattered),DRSC27760,2.80e5,3.06e5,5.69e5,7.67e5,inactive
CG16995,DRSC00480,1.22e5,1.13e5,6.63e5,6.73e5,inactive
CG33986,DRSC37802,1.17e5,1.22e5,7.31e5,5.64e5,inactive
CG15564,DRSC15102,2.26e5,2.50e5,2.18e6,2.92e6,inactive
CG13130 (retired record) + bib,DRSC24888,5.39e5,7.45e5,6.09e5,7.29e5,inactive
Polr3B (RNA polymerase III subunit B),DRSC07536,1.15e6,1.33e6,1.45e6,1.49e6,inactive
CG4884,DRSC15671,1.50e5,1.91e5,1.34e6,2.31e6,inactive
CG4884,DRSC26329,2.72e5,2.75e5,7.37e5,6.84e5,inactive
Cyp6a8 (Cytochrome P450 6a8),DRSC07384,8.91e5,8.42e5,2.64e6,2.34e6,inactive
CG30344,DRSC22510,4.81e5,7.50e5,1.75e6,2.68e6,inactive
CG30344,DRSC26387,3.77e5,3.01e5,6.67e5,5.96e5,inactive
CG42594,DRSC18408,2.13e5,4.10e5,2.59e6,3.38e6,inactive
CG42594,DRSC22978,7.68e5,9.48e5,1.38e6,1.45e6,inactive
CG42594,DRSC25767,3.91e5,4.38e5,8.55e5,5.94e5,inactive
CG42594,DRSC26285,3.16e5,3.58e5,8.05e5,7.94e5,inactive
CG42594,DRSC28979,7.35e5,7.59e5,1.67e6,1.61e6,inactive
Rab9Db + Rab9D + Rab9E,DRSC17656,1.26e6,6.32e5,1.35e6,4.23e5,inactive
CG10375,DRSC28520,2.23e5,5.98e5,7.40e5,1.41e6,inactive
Rnf146 (Ring finger protein 146),DRSC11045,2.02e5,1.27e5,1.97e6,2.28e6,inactive
CG18641,DRSC00527,96426,1.15e5,7.45e5,5.48e5,inactive
Ir7d (Ionotropic receptor 7d),DRSC18010,3.60e5,3.43e5,2.48e6,2.95e6,inactive
CG13578,DRSC04214,2.22e5,1.64e5,1.71e6,1.53e6,inactive
Sdc (Syndecan),DRSC04654,2.88e5,3.46e5,1.71e6,1.62e6,inactive
Sdc (Syndecan),DRSC25762,5.76e5,3.19e5,2.27e6,8.86e5,inactive
Sdc (Syndecan),DRSC38962,7.55e5,8.92e5,2.17e6,2.05e6,inactive
Ptx1,DRSC16804,1.35e5,1.21e5,2.08e6,2.80e6,inactive
Ptx1,DRSC25321,3.31e5,4.96e5,6.23e5,7.11e5,inactive
ATbp ((A+T)-stretch binding protein),DRSC20906,1.01e5,39182,2.15e5,2.02e5,inactive
ATbp ((A+T)-stretch binding protein),DRSC29661,3.91e5,4.11e5,8.55e5,8.55e5,inactive
CG6923,DRSC16136,19220,34191,2.36e5,3.63e5,inactive
CG6923,DRSC29621,5.47e5,8.85e5,9.24e5,9.24e5,inactive
COX4L (Cytochrome c oxidase subunit 4-like),DRSC04841,2.46e5,4.23e5,1.75e6,2.46e6,inactive
CG32536 + CG32537,DRSC20074,3.23e5,2.41e5,1.62e6,1.22e6,inactive
veil,DRSC06892,1.01e6,1.07e6,2.04e6,1.76e6,inactive
CG3529,DRSC10369,8.56e5,4.11e5,1.99e6,1.25e6,inactive
CG3529,DRSC25300,8.17e5,5.88e5,1.14e6,1.23e6,inactive
"beta-PheRS (Phenylalanyl-tRNA synthetase, beta-subunit)",DRSC15859,65124,43760,3.52e5,3.86e5,inactive
"beta-PheRS (Phenylalanyl-tRNA synthetase, beta-subunit)",DRSC26218,3.85e5,4.91e5,4.57e5,4.56e5,inactive
CR18275 (pseudo),DRSC18151,3.19e5,3.06e5,4.14e6,3.36e6,inactive
CR18275 (pseudo),DRSC28716,4.16e5,4.21e5,1.67e6,1.84e6,inactive
